The values that follow come from patent US11712410 (K18, dated 2023).

No constants are given. Whether binding was seen depends on the method and setting. Some entries that bind do so weakly or less than the wild type.

The experiment concerns the target T1, Hair Keratin KRTHB1 Basic (UniProt Q14533 304-505, limits assumed).
T1 construct: The keratin was printed onto a bare gold SPRi chip; also called natural hair keratin
T1 sequence (looked up): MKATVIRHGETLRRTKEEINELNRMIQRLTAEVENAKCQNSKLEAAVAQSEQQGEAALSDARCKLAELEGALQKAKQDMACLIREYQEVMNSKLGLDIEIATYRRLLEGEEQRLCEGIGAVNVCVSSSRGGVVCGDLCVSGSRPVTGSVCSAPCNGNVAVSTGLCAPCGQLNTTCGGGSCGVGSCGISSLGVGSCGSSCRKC
The experiment can be described thus: SPRi (PlexArray HT), keratin on chip.

B1: Aquis Pep1 (peptide)
peptide: FCGFPSCSTSG
notes: also called Aquis peptide 1; Peptide Aquis 1
Regarding B1, the binding entry is recorded as “binds”.
